Source: PubChem BioAssay AID504793 (Drosophila RNAi Screening Center, 2011)
Test: 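Genes required for cells to halt at G2/M after double-strand DNA breaks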 (primary screen). Cell system: Drosophila S2R+ cells. Reagent: long dsRNA against Drosophila genes, about 0.25 µg dsRNA per well. Duration: 4 days of dsRNA, then 4 hours of drug before read-out. Treatment: doxorubicin 0.5 µM for 4 hours to cause double-strand breaks, in cells also given a low, harmless dose of dsRNA against nbs to sensitise the assay. Measurement: 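Mitotic index as the number of phospho-histone H3-positive cells in each well following doxorubicin, given as raw counts without normalisation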. Reading the numbers: mitotic cells: higher = more cells in mitosis, weaker G2 arrest. Hit rule: 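a call needs confirmation in secondary tests, with other dsRNAs and a check of mitotic timing without damage, not just a high primary count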. Calls: active = confirmed in follow-up tests; inactive = not confirmed.
The deposit covers about 23,000 reagents; below is a random part of those with a known target gene and a result. Over the whole deposit, 62 (0.27%) were called active. 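Calls come from follow-up tests whose scores are not deposited, so confirmed genes may have low counts here; counts are not normalised per plate.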 The raw values are shown without normalisation. A number with no mark means an inactive call. Names joined by + are all predicted targets of the reagent.

gene | dsRNA | mitotic cells, replicate 1
CG14718 | DRSC14941 | 7
CG32444 | DRSC11677 | 7
PMP34 | DRSC21939 | 4
Rab6 | DRSC03404 | 11
Rab6 | DRSC25636 | 5
Hs2st | DRSC03348 | 6
CG11192 | DRSC06057 | 2
CG11192 | DRSC25902 | 10
CG5445 | DRSC23180 | 3
DCTN5-p25 | DRSC03525 | 21
DCTN5-p25 | DRSC26867 | 14
Cap-D2 | DRSC15401 | 12
Cap-D2 | DRSC24096 | 20
fos28F (retired record) | DRSC03391 | 14
Cf2 | DRSC23015 | 10
Cf2 | DRSC28177 | 5
CG6576 | DRSC10663 | 4
CG6576 | DRSC28084 | 7
Gr97a | DRSC13802 | 15
CG44433 | DRSC06517 | 5
CG44433 | DRSC06518 | 3
CG44433 | DRSC26571 | 3
Saf6 | DRSC00633 | 2
Targ2 | DRSC21970 | 9
CG31525 | DRSC12004 | 9
CG42365 | DRSC04266 | 7
CG33500 | DRSC09115 | 7
gb | DRSC15961 | 6
gb | DRSC24834 | 7
CG14445 | DRSC17938 | 13
CG14445 | DRSC24159 | 10
CG12948 | DRSC14576 | 5
CG12948 | DRSC27910 | 6
SdhB | DRSC05018 | 23
SdhB | DRSC21367 | 17
sut2 | DRSC07701 | 6
Fkbp12 | DRSC07425 | 1
CG8635 | DRSC07226 | 2
CG8635 | DRSC29143 | 3
alka | DRSC06136 | 5

A portion taken from the entries so far, as a working copy:
gene | dsRNA | mitotic cells, replicate 1
CG31525 | DRSC12004 | 9
CG42365 | DRSC04266 | 7
CG33500 | DRSC09115 | 7
gb | DRSC15961 | 6
gb | DRSC24834 | 7
CG14445 | DRSC17938 | 13
CG14445 | DRSC24159 | 10
CG12948 | DRSC14576 | 5

The results go on.
gene | dsRNA | mitotic cells, replicate 1
sp3 | DRSC16354 | 6
Ir7c | DRSC18007 | 11
GLS | DRSC07261 | 9
GLS | DRSC25962 | 4
CG33136 | DRSC05744 | 4
CG33136 | DRSC29014 | 6
p120ctn | DRSC07753 | 3
CG12375 | DRSC02163 | 10
CG12375 | DRSC26794 | 5
Vha14-1 | DRSC07571 | 15
CG14743 | DRSC06479 | 2
CG9400 | DRSC20182 | 9
Ktl | DRSC14270 | 6
Ir40a | DRSC03732 | 6
Ir40a | DRSC03733 | 10
mRpS35 | DRSC08551 | 1
apt | DRSC23278 | 9
apt | DRSC26181 | 4
CG34354 | DRSC15645 | 7
CG34354 | DRSC23054 | 6
CG5003 | DRSC15694 | 6
CG5003 | DRSC26689 | 4
Mvk + CG33672 + spt4 | DRSC05356 | 7
Mvk + CG33672 + spt4 | DRSC06628 | 16
Mco3 | DRSC15926 | 10
Targ | DRSC06206 | 11
CG15140 | DRSC02440 | 6
CG4887 | DRSC00670 | 4
CG4887 | DRSC21563 | 1
CG4887 | DRSC25723 | 3
Acsx1R | DRSC14339 | 13
ppk9 | DRSC04134 | 5
ppk9 | DRSC04135 | 9
CG17801 | DRSC15273 | 12
PolD3 | DRSC01961 | 2
PolD3 | DRSC28401 | 6
